Experimental data taken from patent US11365195B2, “Atypical inhibitors of monoamine transporters; method of making; and use thereof” (THE UNITED STATES OF AMERICA, AS REPRESENTED BY THE …, priority 2017, dated 2022).
For at least one compound, name, drawing or mass did not settle the structure.

Sequences of proteins named here, by UniProt entry; tags and fusion partners are left off.
UniProt Q60492, whole entry: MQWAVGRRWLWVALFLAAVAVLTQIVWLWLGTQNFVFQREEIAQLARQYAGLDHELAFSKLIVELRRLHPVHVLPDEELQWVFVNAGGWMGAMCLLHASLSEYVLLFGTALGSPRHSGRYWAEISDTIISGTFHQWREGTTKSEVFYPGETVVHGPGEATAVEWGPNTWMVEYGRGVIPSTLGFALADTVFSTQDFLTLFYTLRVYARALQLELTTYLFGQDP
UniProt P23977, whole entry: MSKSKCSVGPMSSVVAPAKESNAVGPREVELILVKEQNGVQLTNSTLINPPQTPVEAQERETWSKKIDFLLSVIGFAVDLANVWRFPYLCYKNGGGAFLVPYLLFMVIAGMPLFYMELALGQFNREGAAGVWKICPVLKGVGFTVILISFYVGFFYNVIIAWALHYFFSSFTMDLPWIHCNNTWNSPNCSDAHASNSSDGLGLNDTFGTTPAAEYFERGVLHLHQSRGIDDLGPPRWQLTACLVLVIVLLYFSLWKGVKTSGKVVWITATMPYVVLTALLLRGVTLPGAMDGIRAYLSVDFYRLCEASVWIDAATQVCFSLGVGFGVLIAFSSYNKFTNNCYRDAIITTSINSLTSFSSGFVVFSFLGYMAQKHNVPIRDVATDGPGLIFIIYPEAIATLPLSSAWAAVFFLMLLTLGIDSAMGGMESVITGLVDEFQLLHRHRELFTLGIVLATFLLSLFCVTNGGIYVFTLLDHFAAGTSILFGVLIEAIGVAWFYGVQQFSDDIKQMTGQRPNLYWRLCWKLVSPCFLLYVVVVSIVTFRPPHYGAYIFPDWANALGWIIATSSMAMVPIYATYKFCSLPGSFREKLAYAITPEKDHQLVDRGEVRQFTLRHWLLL

Legend:
σ1R = biological target: T1, σ1R (Cavia porcellus, UniProt Q60492); experiment: σ1R radioligand binding in guinea pig cortex ([3H]-(+)-Pentazocine competition)
T1 construct: tissue BioReclamation IVT (Hicksville, N.Y.); host or cells: male Hartley guinea pig brain cortex membranes
Protocol: (§1) Binding affinities of the analogue compounds were evaluated at the DAT and SERT in rat brain membranes, and sigma-1 in guinea pig brain membranes according to the following protocols.
σ1R Radioligand Binding in Guinea Pig Cortex
Male Hartley guinea pig cortices were dissected from freshly harvested brains (shipped cold in PBS buffer from BioReclamation IVT (Hicksville, N.Y.)) and frozen at −80° C. for future use. […] The supernatant was collected in a clean tube and the pellet re-suspended in 10 ml of cold buffer and centrifuged again (˜1,200 rpm) for 10 min at 4° C. […] The final pellet was suspended in ice-cold binding buffer at 50 mg/ml concentration. […] All test compounds were freshly dissolved in 30% DMSO and 70% H2O to a stock concentration of 1 mM or 100 μM. When necessary, to assist the solubilization of compounds, 10 μl of glacial acetic acid was added along with the DMSO (in place of 10 μl final H2O volume). Each test compound was then diluted into 10 half-log serial dilutions using 30% DMSO as the vehicle. […] Nonspecific binding was determined using either 10 μM PRE084 or 10 μM (+)-Pentazocine and total binding was determined with 30% DMSO vehicle (3% DMSO final concentration). […] The filters were washed 3 times with 3 ml (3×1 ml/well) of ice cold binding buffer.

DAT = biological target: T2, DAT (Rattus norvegicus, UniProt P23977); experiment: DAT radioligand binding in rat striatum ([3H]-WIN35,428 competition); conditions: ratio of SERT Ki to DAT Ki
T2 construct: 100 μl of tissue preparation (1.5 mg of brain striatum membranes per well); tissue Bioreclamation IVT (Hicksville, N.Y.); host or cells: male Sprague-Dawley rat brain striatum membranes
Protocol: as §1
DAT Radioligand Binding in Rat Striatum
The tissue was centrifuged at 20,000 rpm for 10 min at 4° C. The pellet was suspended in cold buffer and centrifuged again using the same settings. The resulting pellet was resuspended in cold buffer at a concentration of 15 mg/mL OWW (original wet weight). On test day, all test compounds were freshly dissolved in 30% DMSO and 70% H2O to a stock concentration of 1 mM or 100 μM When necessary, to assist the solubilization of compounds, 10 μl of glacial acetic acid was added along with the DMSO (in place of 10 μl final H2O volume). Each test compound was then diluted into 10 half-log serial dilutions using 30% DMSO vehicle. […] Non-specific binding was determined using […] Indatraline and total binding was determined with 30% DMSO vehicle. The reaction was started with the addition of the tissue. […] The filters were washed 3 times with 3 mL (3×1 mL/well) of ice cold binding buffer. […] These analyses were performed using GraphPad Prism version 6.00 for Macintosh (GraphPad Software, San Diego, Calif.).

In the case of `Cl.O=C(c1ccccc1)N1CCC(NCCSC(c2ccc(F)cc2)c2ccc(F)cc2)CC1` [JBG02-009, (4-((2-((Bis(4-fluorophenyl)methyl)thio)ethyl)amino)piperidin-1-yl)(phenyl)methanone], the σ1/DAT (σ1R; ratio of σ1 to DAT affinity values) is reported as 0.45, the σ1/SERT (σ1R; ratio of σ1 to SERT affinity values) is reported as 0.0072 and the SERT/DAT (DAT) is reported as 62.53.
